The list is a part of this screen's results and no random one: it is rich in T/C values a quarter to a half above the control, in often repeated tests (any T/C) and in doses without a T/C. Other doses and runs of a compound stand elsewhere. T/C: endpoint of the treated group in % of that of the vehicle group. Some doses have a count of surviving animals in place of a T/C: the source files T/C as zero there, which appears to mark a toxic dose or a test without result, not a measured value. Some doses without a T/C left all or most animals alive at the check, yet need not have been tolerated: the source hardly ever lists a survival T/C far under the control, and the zero likely stands for such cases as well. Survivors were counted at the toxicity check, usually on the fifth day, unless a day is given; later deaths do not show. Schedules are NCI's codes, read here as Q, the interval in days (D) or hours (H), X, the number of doses. Some molecules as drawn cover several salts, stereoisomers or complexes of the source; a dose is that of the sample tested. Some entries hold several experiments; the results are listed from low to high. Counts like (3×) say how often a value occurs here. Where survival is the endpoint, this PubChem deposit counts one and a half times the control or more as active, and values a quarter to a half above the control carry no call in these data; other NCI protocols may use other cut-offs. Some T/C values carry the count of animals alive at the toxicity check (mostly the fifth day); without a count, all were alive then.
System: L1210 leukemia ip in BDF1 mice, survival T/C
Assay: NCI In Vivo Anticancer Drug Screen. Data for tumor model L1210 Leukemia (intraperitoneal) in B6D2F1 (BDF1) mice
Details: T/C endpoint: median survival time, higher T/C = longer survival

N=c1ccn2c(n1)OC1C(O)C(CO)OC12 (configuration not stated)
T/C (dose: 150.0 mg/kg/injection, schedule: Q01DX009 (ip), vehicle: water, evaluated on day 54): 216 % of control | T/C (dose: 150.0 mg/kg/injection, schedule: Q01DX009 (ip), vehicle: water, evaluated on day 60): 200 and 244 % of control | T/C (dose: 180.0 mg/kg/injection, schedule: Q01DX009 (ip), vehicle: water, evaluated on day 5): 203 and 217 % of control | T/C (dose: 180.0 mg/kg/injection, schedule: Q01DX009 (ip), vehicle: water, evaluated on day 7): 208 and 218 % of control | T/C (dose: 180.0 mg/kg/injection, schedule: Q01DX009 (ip), vehicle: water, evaluated on day 27): 238 % of control [7 of 8 alive] | T/C (dose: 180.0 mg/kg/injection, schedule: Q01DX009 (ip), vehicle: water, evaluated on day 30): 225 % of control [7 of 8 alive] | T/C (dose: 180.0 mg/kg/injection, schedule: Q01DX009 (ip), vehicle: water, evaluated on day 31): 218 % of control | T/C (dose: 180.0 mg/kg/injection, schedule: Q01DX009 (ip), vehicle: water, evaluated on day 33): 283 % of control | T/C (dose: 180.0 mg/kg/injection, schedule: Q01DX009 (ip), vehicle: water, evaluated on day 60): 200, 208, 215 % of control | survivor count (dose: 200.0 mg/kg/injection, schedule: Q01DX001 (ip), vehicle: water): 5 of 8 | T/C (dose: 200.0 mg/kg/injection, schedule: Q01DX009 (ip), vehicle: water, evaluated on day 5): 303 % of control | T/C (dose: 200.0 mg/kg/injection, schedule: Q01DX009 (ip), vehicle: water, evaluated on day 30): 250 % of control | T/C (dose: 200.0 mg/kg/injection, schedule: Q01DX009 (ip), vehicle: water, evaluated on day 35): 235 % of control | T/C (dose: 200.0 mg/kg/injection, schedule: Q01DX009 (ip), vehicle: water, evaluated on day 45): 215 % of control | T/C (dose: 200.0 mg/kg/injection, schedule: Q01DX009 (ip), vehicle: water, evaluated on day 60): 231, 236, 272 [7 of 8 alive], 303 % of control | T/C (dose: 200.0 mg/kg/injection, schedule: Q03HX024 (ip), vehicle: saline): 133 % of control | T/C (dose: 200.0 mg/kg/injection, schedule: Q04DX003 (oral), vehicle: saline): 144 % of control | T/C (dose: 200.0 mg/kg/injection, schedule: Q04DX003 (oral), vehicle: water): 138 % of control | T/C (dose: 300.0 mg/kg/injection, schedule: Q01DX009 (ip), vehicle: water, evaluated on day 5): 232, 265, 294 % of control | T/C (dose: 300.0 mg/kg/injection, schedule: Q01DX009 (ip), vehicle: water, evaluated on day 7): 201 and 222 % of control | T/C (dose: 300.0 mg/kg/injection, schedule: Q01DX009 (ip), vehicle: water, evaluated on day 27): 238 % of control | T/C (dose: 300.0 mg/kg/injection, schedule: Q01DX009 (ip), vehicle: water, evaluated on day 30): 232 and 245 % of control | T/C (dose: 300.0 mg/kg/injection, schedule: Q01DX009 (ip), vehicle: water, evaluated on day 31): 222 % of control | T/C (dose: 300.0 mg/kg/injection, schedule: Q01DX009 (ip), vehicle: water, evaluated on day 33): 144 % of control | T/C (dose: 300.0 mg/kg/injection, schedule: Q01DX009 (ip), vehicle: water, evaluated on day 54): 288 % of control | T/C (dose: 300.0 mg/kg/injection, schedule: Q01DX009 (ip), vehicle: water, evaluated on day 60): 201, 254, 260, 300 [7 of 8 alive], 305 % of control | T/C (dose: 400.0 mg/kg/injection, schedule: Q01DX001 (ip), vehicle: saline): 133 % of control | T/C (dose: 400.0 mg/kg/injection, schedule: Q01DX001 (ip), vehicle: water): 127 % of control [6 of 8 alive] | T/C (dose: 400.0 mg/kg/injection, schedule: Q01DX009 (ip), vehicle: water, evaluated on day 5): 151 % of control | T/C (dose: 400.0 mg/kg/injection, schedule: Q01DX009 (ip), vehicle: water, evaluated on day 30): 333 % of control | T/C (dose: 400.0 mg/kg/injection, schedule: Q01DX009 (ip), vehicle: water, evaluated on day 35): 200 % of control | T/C (dose: 400.0 mg/kg/injection, schedule: Q01DX009 (ip), vehicle: water, evaluated on day 45): 330 % of control [7 of 8 alive] | T/C (dose: 400.0 mg/kg/injection, schedule: Q01DX009 (ip), vehicle: water, evaluated on day 60): 94, 151, 268, 372 % of control | survivor count (dose: 400.0 mg/kg/injection, schedule: Q03HX008 (oral), vehicle: water): 3 of 8 | T/C (dose: 400.0 mg/kg/injection, schedule: Q03HX016 (ip), vehicle: saline): 133 % of control [6 of 8 alive] | survivor count (dose: 400.0 mg/kg/injection, schedule: Q03HX024 (ip), vehicle: water): 7 of 8 | survivor count (dose: 400.0 mg/kg/injection, schedule: Q03HX024 (oral), vehicle: water): 6 of 8 | T/C (dose: 400.0 mg/kg/injection, schedule: Q04DX003 (oral), vehicle: saline): 144 % of control | T/C (dose: 500.0 mg/kg/injection, schedule: Q01DX009 (ip), vehicle: water, evaluated on day 5): 105 and 535 % of control | T/C (dose: 500.0 mg/kg/injection, schedule: Q01DX009 (ip), vehicle: water, evaluated on day 7): 144 and 180 % of control | T/C (dose: 500.0 mg/kg/injection, schedule: Q01DX009 (ip), vehicle: water, evaluated on day 27): 138 % of control | T/C (dose: 500.0 mg/kg/injection, schedule: Q01DX009 (ip), vehicle: water, evaluated on day 30): 100 % of control | T/C (dose: 500.0 mg/kg/injection, schedule: Q01DX009 (ip), vehicle: water, evaluated on day 31): 144 % of control [7 of 8 alive] | T/C (dose: 500.0 mg/kg/injection, schedule: Q01DX009 (ip), vehicle: water, evaluated on day 60): 105, 180 [7 of 8 alive], 545 % of control | survivor count (dose: 500.0 mg/kg/injection, schedule: Q01DX009 (ip), vehicle: water): 4 of 8 | T/C (dose: 600.0 mg/kg/injection, schedule: Q01DX009 (ip), vehicle: water, evaluated on day 5): 107 and 110 % of control | T/C (dose: 600.0 mg/kg/injection, schedule: Q01DX009 (ip), vehicle: water, evaluated on day 30): 107 % of control [7 of 8 alive] | T/C (dose: 600.0 mg/kg/injection, schedule: Q01DX009 (ip), vehicle: water, evaluated on day 54): 133 % of control | T/C (dose: 600.0 mg/kg/injection, schedule: Q01DX009 (ip), vehicle: water, evaluated on day 60): 100, 110, 666 % of control | survivor count (dose: 600.0 mg/kg/injection, schedule: Q01DX009 (ip), vehicle: water): 7 of 8 | T/C (dose: 800.0 mg/kg/injection, schedule: Q01DX001 (ip), vehicle: saline): 138 % of control | T/C (dose: 800.0 mg/kg/injection, schedule: Q01DX001 (ip), vehicle: water): 133 % of control [6 of 8 alive] | T/C (dose: 800.0 mg/kg/injection, schedule: Q01DX001 (oral), vehicle: water, evaluated on day 30): 133 % of control [7 of 8 alive] | T/C (dose: 800.0 mg/kg/injection, schedule: Q01DX001 (oral), vehicle: water, evaluated on day 61): 125 % of control | survivor count (dose: 800.0 mg/kg/injection, schedule: Q01DX009 (ip), vehicle: saline): 7 of 7 | T/C (dose: 800.0 mg/kg/injection, schedule: Q01DX009 (ip), vehicle: water, evaluated on day 5): 102 % of control | T/C (dose: 800.0 mg/kg/injection, schedule: Q01DX009 (ip), vehicle: water, evaluated on day 60): 102 % of control | survivor count (dose: 800.0 mg/kg/injection, schedule: Q01DX009 (ip), vehicle: water): 5 of 8 and 8 of 8 (2×) | survivor count (dose: 800.0 mg/kg/injection, schedule: Q01DX009 (sc), vehicle: water): 7 of 8 | survivor count (dose: 800.0 mg/kg/injection, schedule: Q04DX003 (ip), vehicle: saline): 5 of 8 | T/C (dose: 1200.0 mg/kg/injection, schedule: Q01DX001 (oral), vehicle: water): 125 % of control [7 of 8 alive] | survivor count (dose: 1600.0 mg/kg/injection, schedule: Q01DX001 (ip), vehicle: water): 2 of 8 | T/C (dose: 1600.0 mg/kg/injection, schedule: Q01DX001 (oral), vehicle: water): 130 % of control | survivor count (dose: 1600.0 mg/kg/injection, schedule: Q01DX009 (oral), vehicle: water): 6 of 8 | survivor count (dose: 1600.0 mg/kg/injection, schedule: Q04DX003 (ip), vehicle: saline): 5 of 8 | survivor count (dose: 3200.0 mg/kg/injection, schedule: Q01DX001 (ip), vehicle: water): 4 of 8 | survivor count (dose: 3200.0 mg/kg/injection, schedule: Q04DX003 (oral), vehicle: water): 4 of 8

Source: PubChem BioAssay AID248 (DTP/NCI, 2004)
